# Among all 52,000 sequences or so, about 210 (0.4%) were called active.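 The calls were made as follows: active = gene whose silencing raises cell survival under the drug, median off-target-corrected z-score across its silencing RNAs 2 or more; inactive = the rest.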 The list shows a part of the results.
# Assay: Resistance to Poly (ADP-Ribose) Polymerase inhibitor: Gene Identification via Genome-wide siRNA Screen
# Details: mouse BRCA2 R2336H ES cells, olaparib, CellTiter-Glo viability; hits give high values
# How it was run: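 Genome-wide siRNA screen (3 siRNAs/gene, 20 nM) in mouse ES cells carrying hypomorphic BRCA2 R2336H; olaparib 500 nM added 48 h post-transfection, CellTiter-Glo viability 72 h later. Normalized to plate-median negative control; MAD z-scores, gene median, seed-adjusted.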
row,Sequence,z-score
1,GCUGUUUUGGUAGAUUUUGTT against Map3k8,inactive: 1.3
2,GGUUUGUGGUGGUAUUUAATT against Man2a2,inactive: -2.18
3,CCGUCUGGUACAACAUGAUTT against 2610529H08Rik,inactive: 0.171
4,GGUCGAUUGAUAUACAAAATT against Gdf6,inactive: -0.599
5,GCCAAAAACGAUGAAAUGUTT against D14Ertd668e,inactive: -0.814
6,GGACAACUUCAACAGCACUTT against Rab13,inactive: 0.41
7,GGUUAAAUAUGUAAACCACTT against Slco2b1,inactive: -0.936
8,CGCAUAAUGGAUGAGAGGATT against Mef2a,inactive: 0.945
9,GGAUUCUCCGCACAGUUGGTT against BC026744,inactive: -1.23
10,CCCUCUUGAAAUUAGUGUGTT against Dusp14,inactive: 0.76
11,GGACCAGCCAUACCUGUGATT against Ndufa7,inactive: -2.1
12,GGAUGUGUCUCUGGAACAUTT against Cdc37l1,inactive: -1.34
13,GGUGUUUGGCGAUAAUAAGTT against Zdhhc15,inactive: -0.212
14,GGGUCCUUUUUAGCUGUAGTT against Vdac1,inactive: 0.889
15,AAAAAGGUGUCACCUUUCUTT against Gm1961,inactive: -0.149
16,CCCGUAUGGAUGUGGUAACTT against 4933425O20Rik,inactive: -2.22
17,GGAGAGAACUGAUGAAUCCTT against 0610038F07Rik,inactive: 0.46
18,GGUUAAACUACAACAGUUGTT against 1700095F04Rik,inactive: 1.49
19,CCGCCGUUCCUUUUGUUUCTT against Sox21,inactive: 0.733
20,GCGCAGUCAGACCAUAUAUTT against Fbxl5,inactive: -1.2
21,CCUCUUGGUCGAAUUAUUATT against A630042L21Rik,inactive: 0.377
22,CGGUAUGUAAAUCUAUCACTT against Kctd4,inactive: -0.136
23,CCCUGAGAUAGGCAAUGUGTT against 6330404A07Rik,inactive: -1.06
24,CCUCUUAAAACAAUACCAATT against Olr1,inactive: 0.365
25,GGAAAACCUAGAAGAUAAUTT against Syt14l,inactive: 0.82
26,CCGAGUUCGGGUAUCUUGGTT against Grwd1,inactive: -0.802

row,Sequence,z-score
1,GGCUUUUUGUGUAUUUGUUTT against Evi5,inactive: -0.659
2,GGCAUACUUGUACCGCUAUTT against Mmp9,inactive: 0.199
3,GGUUAUCGCAUUUGGUGGUTT against Olfr1511,inactive: -0.0472
4,CCACAAAACUAAGACACCUTT against P2ry6,inactive: 0.181
5,GGAAUACGCAGUGAAAAUCTT against Phkg1,inactive: -0.0338
6,GCCAACUCAGUUUUGAAUGTT against 4930404J24Rik,inactive: -0.142
7,GCCAGGAUAUGGAUAUGCATT against 1520401A03Rik,inactive: 1.47
8,CCAAGGAGACUCAUCAACATT against Crebbp,inactive: 2.08
9,GCUCAAUUGUGGAGCAGUCTT against Cd5l,inactive: 0.193
10,GGUAAAACAUUGUUUAGACTT against Crk7,inactive: -0.145
11,CCUACUUGGGAAAGUUCGCTT against Egr3,inactive: 0.719
12,CCUAGCAGACUUUAACCAATT against Ptk2,inactive: -0.778
13,GGUAUCAGAGCUGUGUUCUTT against C530044N13Rik,inactive: -0.83
14,GGGUAGAUAGAUGUUCAGGTT against LOC434285,inactive: -0.21
15,GGAUUACCGGCAGCUGGAATT against Dnm1,inactive: 2.09
16,GCUAGAGAAAAAACAGCCATT against Csf2rb1,inactive: 0.652
17,CGUUCCAGGUGAAGAUCCUTT against Tbx10,inactive: -0.102
18,GCCUGAGUCAUCCUCCAAATT against A630035I11Rik,inactive: -1.89
19,GGCCAACUCUAUUUUGAAGTT against 2310006J04Rik,inactive: 1.34
20,GCUAUAUAAAAGAACCGAUTT against Daxx,inactive: 0.706
21,CCCAGUCCUAAGGUUCAGATT against Armcx2,inactive: -0.247
22,GCAGAAAGAAACGUAAAUGTT against AW494914,inactive: 0.58
23,GGUGGCGGGAGAUGUUUUUTT against Pex6,inactive: 0.391
24,GGACAAGUUUCGGAGAAUGTT against Kirrel3,inactive: -1.89
25,GCUGCUCAGAGUUAUGAUGTT against 1700088E04Rik,inactive: 0.292
26,GGAAGUGAAUAAAUUCCUUTT against 4930579E17Rik,inactive: 0.54

# Shown bar-delimited: part of the list above.
row | Sequence | z-score
4 | CCACAAAACUAAGACACCUTT against P2ry6 | inactive: 0.181
5 | GGAAUACGCAGUGAAAAUCTT against Phkg1 | inactive: -0.0338
10 | GGUAAAACAUUGUUUAGACTT against Crk7 | inactive: -0.145
11 | CCUACUUGGGAAAGUUCGCTT against Egr3 | inactive: 0.719
22 | GCAGAAAGAAACGUAAAUGTT against AW494914 | inactive: 0.58
23 | GGUGGCGGGAGAUGUUUUUTT against Pex6 | inactive: 0.391
26 | GGAAGUGAAUAAAUUCCUUTT against 4930579E17Rik | inactive: 0.54

# Next entries follow:

row,Sequence,z-score
1,GGUCGUAAGACAGUUGUCCTT against 4932438H23Rik,inactive: 0.322
2,CGUACUUAUUGUUCCUAUCTT against LOC626359,inactive: 0.596
3,GAGAACGCGUUUUUGGGACTT against Defcr5,inactive: -0.876
4,GGCAUGGUGUUUUACGUAUTT against Fgd6,inactive: 0.215
5,GGUCGACCUCAGAGAUCUGTT against C030046M14Rik,inactive: 1.08
6,GGGAUGGAGAAUCAAGAUATT against B930062P21Rik,inactive: 0.732
7,CCGGAGUUGUACAAUGAUATT against Blk,inactive: -0.407
8,GCUUUAUGCAGACAAACACTT against Zbtb8,inactive: -0.229
9,GGCCAUCUUUAGACAUAUUTT against Serpinf2,inactive: -0.609
10,CGGGAAAUUCGUCUAUGUUTT against Arntl2,inactive: -0.0806
11,GCCAAGUCUGCUUCACGAGTT against 6430598A04Rik,inactive: 0.907
12,UGCUGUUGGAGAGCAAAUATT against Slpi,inactive: -0.582
13,GCACGCUAUUGGCUAUGAGTT against BC052040,inactive: 0.64
14,GGUUUCCAAACCCUUCACATT against Lor,inactive: 1.38
15,GUUCCCAUGUUCUUGGUGUTT against Olfr203,inactive: -0.0434
16,CCCUUGGCCUUCCAAAUUGTT against Psg21,inactive: 0.759
17,GGUUAUUUUCUUCAUGACUTT against Fbxl19,inactive: 3
18,UACCAGAAGUACCUGUCCCTT against Lbx1h,inactive: -2.2
19,CCACCUACUACAGAUAUGCTT against Wdr9,inactive: 0.468
20,GCUGUGCAGCCACAAGUGATT against Gpr142,inactive: -0.417
21,GGAGAAAGUGCGUCUAUAATT against Gdi3,inactive: -1.21
22,GGAUUCCACUCAAGUAUAATT against Gpr35,inactive: 1.55
23,GCUAAUCCUGACAUUUGGCTT against Crabp1,inactive: 0.922
24,GGGACCACAAAUUUGAAAATT against A030012E10,inactive: 0.0238
25,CUACACUCUCAUUAUGAACTT against Olfr138,inactive: -1.1
26,CGAGUUUGACCGGACCAUCTT against Ssna1,inactive: -0.716

row,Sequence,z-score
1,GCUGUUAACUAUCUGGAUATT against Gpr73,inactive: 0.148
2,GGUUUUUCGUUUCAAUGUGTT against Tgfb3,inactive: 0.809
3,GCGAGUCUCACAUCAGUGATT against Zfp537,inactive: -1.21
4,GGUGGAAAUUCCUUAAAUATT against Herc2,inactive: -1.27
5,CCAUUGGUUAGUGAAGAUUTT against Tmprss11c,inactive: 1.35
6,GGAAGAUCUACAUCGUGGGTT against C630013N10Rik,inactive: -0.401
7,CCAUAGGAGAUCUGUUUUATT against Ripk4,inactive: 0.959
8,GGCUUACUAACAGUUUUUGTT against Gem,inactive: -0.144
9,GUCUCCACUGGUGCCUAUATT against 2310056K19Rik,inactive: -1.53
10,GCCAUUCUUUGAAAAGAGGTT against 1190002A17Rik,inactive: 0.391
11,GGAAGAACAAAUAGGUCGATT against Defb14,inactive: -0.617
12,GGAAAACCUUGUUCAAAGUTT against Npn3,inactive: 0.791
13,CCUGAGGCUCUCAAAAACGTT against Matk,inactive: 0.526
14,CCAAGGUACAAUCUAACCATT against Pcoln3,inactive: -1.33
15,GGACUGUGAUUGUUUCAGATT against Mep1a,inactive: 0.558
16,GGAGAGCUAUCACAAAACATT against Olfr1018,inactive: 0.0569
17,GCUUAAGGGAUAACAUAUUTT against Svs2,inactive: -1.04
18,GCUGACAAGUGUAGCGUGUTT against Wtip,inactive: -0.218
19,AUAUUUCUGUCUUUCCUGGTT against Olfr1222,inactive: -0.0417
20,GGCUCUUUGUUAAAUACCCTT against D930001I22Rik,inactive: 0.271
21,CGAACUGGCAUUCACAUGUTT against Tas2r120,inactive: -0.75
22,GCCUAAAAAGAGUGGGUCATT against Mllt1,inactive: -2.11
23,GGGUCUCAUUGACCACCAGTT against Plec1,inactive: -1.95
24,GGUCAAGAACCUUUAACUGTT against Pabpc1,inactive: -2.47
25,GGCAAAGUUGCCAGAUGAATT against 1110005A03Rik,inactive: -0.504
26,GGUGGCAGACUGUGUUUAUTT against BC025206,inactive: -2.14

# Source: PubChem BioAssay AID1347423 (Functional Genomics Laboratory (NCATS/FGL), 2020)
